Measured values from PubChem BioAssay AID504648 (National Center for Advancing Translational Sciences (NCATS), 2011).
Among all 390,000 compounds or so, about 610 (0.16%) were called active. Inconclusive means that the source gave no clear call. Such entries were picked first, then a sample of the others. Calls follow the shape of the dose curve; as a rule, active = well fitted inhibition curve with a large enough effect; inconclusive = small, poorly fitted or top-dose-only effect, or effect the other way, or another doubt; inactive = no such curve, though single readings can be large or run the other way. Potencies beside an inconclusive call are fits to weak or partial responses and may not hold up.
% is scaled to controls: 0 for no effect and ±100 for the full control effect; potency is read from the fitted curve at half-maximal effect.

Test: Nrf2 qHTS screen for inhibitors: counterscreen for cytotoxicity
Conditions: A549 ARE-Fluc cells, CellTiter-Fluor viability, 18-24 h; activity change, negative = cytotoxicity: at 46 µM (top of the series)
Method in brief: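 A549 ARE_Fluc cells in 5% FBS OPTI-MEM were exposed to compounds in concentration-response for 18-24 h at 37 deg C. Viability was read by CellTiter-Fluor fluorescence (Ex 405/Em 525) after 30 min, before the luciferase read.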
With `O=C(CCl)N1N=C(c2ccco2)CC1c1cccs1` (stereo unspecified) the Potency was inconclusive: 29.1 µM [falling, single point]. For `CN(C)CCNC(=O)/C(=C/c1ccc(-c2ccc(Cl)cc2)o1)NC(=O)c1ccccc1`, the “activity change, negative = cytotoxicity” value was inactive: 6.83%. For `CCN(c1ccccc1)S(=O)(=O)c1cc(C(=O)OCC(=O)c2c(N)n(C)c(=O)n(C)c2=O)ccc1C`, the Potency was inconclusive: 2.59 µM [activator, full curve, poor fit]. For `Cc1[nH]c2ccc(C(=O)NCCCN3CCCCC3)cc2c1C`, the Potency was inconclusive: 3.26 µM [activator, partial curve, poor fit]. With `O=C(/C=C/c1ccc([N+](=O)[O-])cc1)c1ccccc(=O)c1O` the Potency was inconclusive: 16.4 µM [falling, single point]. With `Nc1ccccc1-c1ccccc1N` the “activity change, negative = cytotoxicity” value was inactive: -0.402%. For `O=C(NCc1ccccc1)c1ccc(C(=O)N(C2CCCCC2)C2CCCCC2)cc1`, the Potency was inconclusive: 29.1 µM [falling, single point]. With `COc1cc(/C=C/c2ccc3cccc([N+](=O)[O-])c3n2)ccc1OCC(=O)O` the Potency was inconclusive: 9.2 µM [falling, partial curve, poor fit]. In the case of `CC(C)(C)OC(=O)NN1CC(=O)N2[C@@H](Cc3c([nH]c4ccccc34)C2(C)C)C1=O`, the Potency is reported as inconclusive: 3.26 µM [activator, partial curve, poor fit]. In the case of `Nc1[nH]c(=O)[nH]c(=O)c1N=Nc1ccc(C(=O)O)cc1`, the Potency is reported as inconclusive: 25.9 µM [falling, partial curve, poor fit]. With `Cc1c[n+](C)ccc1CC1C([N+](=O)[O-])=C[N-]c2ncnn21` (stereo unspecified) the Potency was inconclusive: 14.6 µM [falling, single point]. For `COc1ccc(-c2ccc(SCc3ccccn3)nn2)cc1OC`, the “activity change, negative = cytotoxicity” value was inactive: 3.67%. With `CCOc1cc(N2CCOCC2)c(OCC)cc1NC(=O)c1nc2nc(C)cc(C)n2n1` the “activity change, negative = cytotoxicity” value was inactive: 1.14%. For `CC(/C=C/c1ccc(N(C)C)cc1)=N/N=C1/NC(=O)CC(C(=O)Nc2ccc(Cl)cc2)S1` (stereo unspecified), the Potency was active: 18.4 µM. In the case of `O=C(NCCSc1ccccc1)c1ccc(Br)cc1`, the Potency is reported as inconclusive: 18.4 µM [activator, partial curve, poor fit]. In the case of `COc1cc(CC(=O)OCC(=O)c2ccc3c(c2)OCCO3)cc(OC)c1OC`, the Potency is reported as inconclusive: 3.26 µM [falling, full curve, poor fit]. For `CCn1cc([N+](=O)[O-])c(C(=O)N2N=C(c3ccc(Cl)c(Cl)c3)CC2c2ccccc2O)n1` (stereo unspecified), the Potency was inconclusive: 32.6 µM [falling, partial curve, poor fit]. For `Cc1ccc(-n2c(O)c(C=Nc3ccccc3-c3n[nH]c(=S)[nH]c3=O)c3ccccc3c2=O)cc1C`, the Potency was inconclusive: 25.9 µM [falling, single point]. For `CC(C)CN1CCC(=O)N([C@H](CSc2ccccc2)Cc2ccccc2)CC1`, the “activity change, negative = cytotoxicity” value was inactive: -3.6%. In the case of `COc1ccc(C(=O)NCC(=O)N/N=C/c2ccc([N+](=O)[O-])s2)cc1OC`, the Potency is reported as inconclusive: 23.1 µM [falling, single point]. In the case of `Cc1cc(Br)ccc1SCC(=O)NCC(c1ccco1)N1CCCCC1` (stereo unspecified), the Potency is reported as inconclusive: 10.3 µM [falling, partial curve, poor fit]. For `CC(=O)Nc1ccc(NS(=O)(=O)c2ccc3c(c2)oc(=O)n3C)cc1`, the “activity change, negative = cytotoxicity” value was inactive: -15.4%. For `Cc1ccc2nc3c(cc2c1)c(C)nn3-c1ccccc1`, the Potency was inconclusive: 32.6 µM [activator, partial curve, poor fit]. With `CC1CCN(S(=O)(=O)c2cccc(C(=O)O)c2)CC1` the “activity change, negative = cytotoxicity” value was inactive: -0.839%. With `NS(=O)(=O)c1ccc(N=Nc2c(=O)[nH]n3c(=O)c4c([nH]c23)CCCC4)cc1` the Potency was inconclusive: 23.1 µM [falling, partial curve]. With `C/C(=N\NC(=O)c1ccc(NS(=O)(=O)c2cccs2)cc1)c1ccc(C(C)(C)C)cc1` the Potency was inconclusive: 32.6 µM [falling, partial curve, poor fit]. In the case of `COc1ccccc1C(c1c(O)cc(C)n(Cc2ccco2)c1=O)N1CCCCC1` (stereo unspecified), the “activity change, negative = cytotoxicity” value is reported as inactive: -0.15%. In the case of `Cc1cnc(CN(C)Cc2c(C(=O)N3CCc4ccccc4C3)nc3ccc(Cl)cn23)[nH]1`, the Potency is reported as inconclusive: 32.6 µM [falling, partial curve, poor fit]. For `CC(=O)Nc1ccc(N(CC(O)Cn2c3ccccc3c3ccccc32)S(=O)(=O)c2ccc(C)cc2)cc1` (stereo unspecified), the Potency was inconclusive: 29.1 µM [falling, partial curve, poor fit]. In the case of `COc1cc2c(cc1OC)CN(c1nc(CN3CCCCC3)nc3sc4c(c13)CCCC4)CC2`, the “activity change, negative = cytotoxicity” value is reported as inactive: -9.98%. For `CSc1nc(Sc2ccccc2Cl)c2ccccc2n1`, the “activity change, negative = cytotoxicity” value was inactive: 2.6%. In the case of `CCCC(c1nnnn1CC1CCCO1)N1CCN(c2cc(Cl)ccc2C)CC1` (stereo unspecified), the Potency is reported as inconclusive: 14.6 µM [falling, partial curve, poor fit]. With `O=C(CSC1CC(=O)N(CC(c2ccccc2)c2ccccc2)C1=O)Nc1ccc(Cl)cc1` (stereo unspecified) the Potency was inconclusive: 23.1 µM [falling, single point]. In the case of `O=c1c2ccccc2nc(N/N=C/c2ccc(O)cc2)n1O`, the “activity change, negative = cytotoxicity” value is reported as inactive: 0.604%. For `Cc1ccc(-n2nc3c(=O)n(CCCC(=O)NCCc4ccccc4Cl)nc(C)c3c2C)cc1`, the Potency was inconclusive: 29.1 µM [activator, partial curve, poor fit]. With `CCOC(=O)N1CCN(C(=O)/C=C/c2ccc([N+](=O)[O-])cc2)CC1` the Potency was inconclusive: 29.1 µM [activator, single point]. In the case of `CC(=O)c1ccc(N2CCN(C(=O)CCCCn3c(=O)[nH]c4ccsc4c3=O)CC2)cc1`, the Potency is reported as inconclusive: 32.6 µM [activator, partial curve, poor fit]. In the case of `CCC(C)Sc1ccc(-c2nc3ccc(C)cn3c2NCc2ccccc2)cc1OC` (stereo unspecified), the Potency is reported as inconclusive: 16.4 µM [falling, single point]. For `COc1cc(OC)cc(C(=O)N2CC(=O)Nc3ccc(Cl)cc3C2c2ccccc2)c1` (stereo unspecified), the “activity change, negative = cytotoxicity” value was inactive: 0%. In the case of `O=c1c(Cl)c(NCCO)ncn1-c1ccccc1`, the “activity change, negative = cytotoxicity” value is reported as inactive: -4.26%. In the case of `CCC(C)OC(=O)C(C)Oc1ccc(-c2ccccc2)cc1` (stereo unspecified), the Potency is reported as inconclusive: 32.6 µM [activator, partial curve, poor fit].
